Assay results: PubChem BioAssay AID2551 (National Center for Advancing Translational Sciences (NCATS), 2010)
About 17,000 (5.5%) of roughly 310,000 compounds were called active. Inconclusive results, whose numbers are uncertain, are shown with a selection of clear calls. The call rests on the fitted dose curve; in most records, active means well fitted inhibition curve with a large enough effect; inconclusive means small, poorly fitted or top-dose-only effect, or effect the other way; inactive means no such curve, though single readings can be large or run the other way. Potencies beside an inconclusive call are fits to weak or partial responses and may not hold up.

The chains behind the UniProt entries cited, without tags or fusion partners. Where a name states a change or a piece, a line headed by the entry shows the natural chain unless it says otherwise.
UniProt P51450: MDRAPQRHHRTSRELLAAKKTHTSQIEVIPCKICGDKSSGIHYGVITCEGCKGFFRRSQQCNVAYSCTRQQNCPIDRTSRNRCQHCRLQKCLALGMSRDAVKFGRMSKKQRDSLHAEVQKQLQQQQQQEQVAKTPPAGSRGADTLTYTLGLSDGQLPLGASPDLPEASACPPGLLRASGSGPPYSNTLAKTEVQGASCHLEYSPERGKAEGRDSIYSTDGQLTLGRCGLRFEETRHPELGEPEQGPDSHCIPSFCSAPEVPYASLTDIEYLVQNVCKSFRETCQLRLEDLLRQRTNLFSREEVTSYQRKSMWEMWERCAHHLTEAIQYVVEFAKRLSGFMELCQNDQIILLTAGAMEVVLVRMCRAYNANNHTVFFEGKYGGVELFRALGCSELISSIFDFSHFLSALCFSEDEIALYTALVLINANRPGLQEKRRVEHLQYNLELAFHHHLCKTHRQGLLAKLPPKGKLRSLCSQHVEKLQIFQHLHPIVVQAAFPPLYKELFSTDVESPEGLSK

These compounds were tested against Nuclear receptor ROR-gamma (Mus musculus) (UniProt P51450) (assay: qHTS for inhibitors of ROR gamma transcriptional activity). Details: Drosophila S2 Gal4-RORgamma UAS-luciferase reporter, 20 h; activity change, negative = inhibition: at 53.6 µM (top of the series).
Summary of the method: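 Stable Schneider cell line, Gal4 DNA-binding domain fused to ROR gamma, UAS-luciferase. Cmpd 1 hr RT → CuSO4 700 uM final → 20 hr RT → luciferase reagent 10 min → luminescence.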
Further: nearly all actives have a fitted effect of over 60% in size.
On the % scale 0 is the no-effect control and ±100 the full control effect; potency means the concentration at half of the fitted maximal effect.

| Structure (SMILES) | activity change, negative = inhibition | Potency |
| --- | --- | --- |
| CCOC(=O)C1=C(C)NC(SC)=NC1c1ccccc1 (configuration not stated) | inactive: 26.3% |  |
| COc1ccc(CN2CCN(C(C)C)C(CCO)C2)cc1Cn1cccn1 (configuration not stated) | inactive: -2.15% |  |
| COc1ccc(C(=O)/C=C/Nc2ccc(S(=O)(=O)Nc3cc(OC)nc(OC)n3)cc2)c(OC)c1 |  | inconclusive: 31.6 µM [activator, single point] |
| COc1cc(CC2COC(=O)C2(O)Cc2ccc(O)c(OC)c2)ccc1O (configuration not stated) |  | inconclusive: 0.794 µM [inhibitor, single point] |
| COc1cccc(/C=N/NC(=S)Nc2cccnc2)c1 |  | active: 2.51 µM |
| Cc1nn(-c2ccccc2)c(N2CCCC2)c1/C=N/NC(=S)Nc1ccccc1C(F)(F)F |  | active: 1.41 µM |
| COc1ccc(NC(=O)c2nnn(Cc3ccc(SC)cc3)c2N)c(OC)c1 | inactive: 4.3% |  |
| Cc1ccc(SCC(=O)Nc2c(Br)cnn2C)cc1 |  | inconclusive: 17.8 µM [activator, partial curve] |
| COc1ccc(-c2nn(-c3ccccc3)cc2C(=O)Nc2nc(CC(C)=O)ns2)cc1 |  | inconclusive: 35.5 µM [inhibitor, single point] |
| Oc1ccc(N=C/C=C/c2cccc(Br)c2)cc1-c1nc2ccccc2s1 |  | inconclusive: 35.5 µM [inhibitor, single point] |
| O=C(CN1CCc2ccccc2C1)Nc1ccc(Br)cc1 |  | inconclusive: 22.4 µM [activator, single point] |
| CCCCN(C)C(=O)c1oc2ccc(S(=O)(=O)N3CCCCCC3)cc2c1C |  | inconclusive: 14.1 µM [activator, single point] |
| COc1ccc(C)cc1NC(=O)C/C(C)=N/NC(=O)Cc1cccc2ccccc12 |  | inconclusive: 25.1 µM [inhibitor, single point] |
| CCCC(=O)NC(c1ccc(C(C)C)cc1)c1ccc2cccnc2c1O (configuration not stated) |  | active: 2.24 µM |
| O=C(NC1CCCCNC1=O)c1ccc(Cl)cc1 (configuration not stated) |  | inconclusive: 15.8 µM [activator, single point] |
| FC(F)(F)c1ccc(N2CCOCC2)c(Nc2nc3ccccc3n3cnnc23)c1 |  | inconclusive: 11.2 µM [activator, partial curve] |
| CC[C@@H]1[C@H]2CCCC(=O)N3CC[C@@H](C[C@@H]1Nc1ccccc1)[C@@H]23 | inactive: -17.8% |  |
| CC1=NN(c2ccccc2)C(=O)/C1=C/c1ccc(Cl)cc1 |  | inconclusive: 17.8 µM [activator, partial curve] |
| CCn1cc(C(=O)NCc2cccnc2)c2cc(OC)c(OC)cc2c1=O | inactive: 4.47% [at 0.365 µM] |  |
| CCCC(C)c1nnc(NC(=O)C2CCCO2)s1 (configuration not stated) | inactive: -1.83% |  |
| COc1ccc(/C=C/c2c([N+](=O)[O-])c(=O)n(C)c(=O)n2C)c(OC)c1 | inactive: -18.9% |  |
| NC1=NN=C(c2ccc3c(c2)OCCO3)CS1 |  | active: 10 µM |
| Cc1ccc(NC(=O)CN(C)Cc2nc3ccccc3c(=O)[nH]2)c(Br)c1 |  | active: 11.2 µM |
| Clc1ccc(/C=N/Nc2ccccn2)cc1 |  | inconclusive: 35.5 µM [inhibitor, single point] |

An excerpt from above in order of formula weight, descending.

| Structure (SMILES) | activity change, negative = inhibition | Potency |
| --- | --- | --- |
| COc1ccc(C(=O)/C=C/Nc2ccc(S(=O)(=O)Nc3cc(OC)nc(OC)n3)cc2)c(OC)c1 |  | inconclusive: 31.6 µM [activator, single point] |
| CCOC(=O)C1=C(C)NC(SC)=NC1c1ccccc1 (configuration not stated) | inactive: 26.3% |  |
| COc1cccc(/C=N/NC(=S)Nc2cccnc2)c1 |  | active: 2.51 µM |

(further entries)

| Structure (SMILES) | activity change, negative = inhibition | Potency |
| --- | --- | --- |
| Cc1ccc(N/N=C(/Sc2nnnn2-c2ccccc2)C(=O)c2ccccc2)cc1 |  | active: 10 µM |
| Cc1cnn(CCC(=O)NNC(=S)Nc2ccc(F)cc2)c1 |  | active: 0.447 µM |
| O=C(NCCc1ccccc1)c1ccco1 | inactive: 11.1% |  |
| O=S1(=O)C2CC3OC2(CC3c2ccc(F)cc2)CN1Cc1ccc(Cl)cc1 (configuration not stated) |  | inconclusive: 20 µM [activator, partial curve, poor fit] |
| CCn1c(-c2csc3c2CCCC3)n[nH]c1=S |  | active: 3.98 µM |
| NC(=O)c1nsc(C(=O)N(CC(=O)NC2CCCC2)c2cccc(C(F)(F)F)c2)c1N | inactive: -22.8% |  |
| CN(C)/C=C(/C(=O)c1ccc(Cl)c(Cl)c1)c1nnnn1-c1ccccc1 |  | inconclusive: 20 µM [inhibitor, single point] |
| CC(C)C(=O)N1CCC(c2nc(-c3ccc(S(=O)(=O)N4CCCC4)cc3)no2)CC1 |  | inconclusive: 11.2 µM [activator, partial curve] |
| CCNc1nc(CSc2ccccc2)nc2sc(C)c(C)c12 |  | active: 5.62 µM |
| Cc1cccc(NC(=S)NC(=O)c2cccs2)n1 |  | active: 3.55 µM |
| COc1ccc(O[C@H]2C=C[C@@H](c3ccccc3)O[C@H]2COC(=O)CC/C(C)=N/OCC[C@@H]2C=C[C@H](OC(C)=O)[C@H](COC(C)=O)O2)cc1 | inactive: 8.4% [at 10 µM] |  |
| CC(=O)Nc1ccc(S(=O)(=O)N2C(=O)c3cccc4cccc2c34)cc1 | inactive: 10.8% |  |
| O=C(CCCCCN1C(=O)c2ccccc2C1=O)Nc1ccc(S(=O)(=O)N2CCCCC2)cc1 |  | inconclusive: 35.5 µM [activator, single point] |
| CCNC(=S)NNC(=O)c1csc2ccccc12 |  | inconclusive: 4.47 µM [inhibitor, full curve, poor fit] |
| CN(C)S(=O)(=O)Oc1ccsc1C(=O)Nc1ccc(C(F)(F)F)cc1 |  | inconclusive: 12.6 µM [activator, partial curve] |
| O=C(Nc1cnn(Cc2ccc(Cl)cc2)c1)c1cccs1 |  | inconclusive: 15.8 µM [activator, single point] |
| CCOC(=O)C1=C(c2ccccc2)NC(=O)NC1c1cc(OC)c(O)c([N+](=O)[O-])c1 (configuration not stated) | inactive: 2.6% |  |
| CCOc1cc(/C=N\Nc2ncc(F)c(N3CCOCC3)n2)ccc1Oc1nc(Cl)ncc1F |  | inconclusive: 11.2 µM [inhibitor, single point] |
| C=CCOC(=O)N[C@H](c1ccccc1)C(C(C)=O)C(C)=O | inactive: -5.4% |  |
| Cn1nnc2cc(C(=O)N3CCC(c4ccccc4)C3)ccc21 (configuration not stated) | inactive: 19.7% |  |
| Cc1cc(C)c(S(=O)(=O)/N=C2\C=C(Nc3ccc(C(=O)O)cc3)C(=O)c3ccccc32)c(C)c1 |  | inconclusive: 11.2 µM [inhibitor, single point] |
| O=C(c1cccs1)N1CCC(c2nc3c(nnn3Cc3ccccc3Cl)c(=O)[nH]2)CC1 | inactive: 14.2% |  |
| COc1ccc(CCNC(=O)C2CCN(C(=O)c3ccc(C(C)(C)C)cc3)CC2)cc1OC |  | inconclusive: 14.1 µM [activator, partial curve] |
| CCOc1ccccc1CN1CCNC(=O)C1CC(=O)NCc1nccn1CC (configuration not stated) | inactive: -7.23% |  |

| Structure (SMILES) | activity change, negative = inhibition | Potency |
| --- | --- | --- |
| CCn1cnc2scc(-c3ccc(C)c(C)c3)c2c1=O |  | inconclusive: 11.2 µM [activator, partial curve] |
| CCOc1ccc(NC(=O)Nc2ccc3nsnc3c2)cc1 |  | inconclusive: 1.26 µM [activator, full curve] |
| CCC/C=C(\CCC)C(NP(=O)(c1ccccc1)c1ccccc1)c1ccc(C(F)(F)F)cc1 (configuration not stated) | inactive: 16.3% |  |
| COc1ccc(-n2c(SCC(=O)N3CCOCC3)nc(O)cc2=O)cc1 |  | active: 11.2 µM |
| c1ccc(OCCn2c(-c3ccco3)nc3ccccc32)cc1 |  | active: 11.2 µM |
| COc1ccc(CN2CCN(Cc3ccon3)CC2CCO)c(C)c1C (configuration not stated) |  | inconclusive: 20 µM [activator, partial curve] |
| COc1cc(NC(=O)c2cc([N+](=O)[O-])ccc2NC(=O)CNC2CCCCC2)cc(OC)c1 | inactive: 11.9% |  |
| C/C=C/C(=O)Nc1nnc(C2CCCCC2)s1 | inactive: 25.4% |  |
| COC(=O)[C@@]1(Cc2ccc(OC)cc2)[C@H]2c3cc(C(=O)N4CCCC4)n(CCSCCO)c3C[C@H]2CN1C(=O)c1ccccc1 |  | inconclusive: 17.8 µM [activator, single point] |
| COc1ccc(-n2c(=S)[nH]c3cc(C(=O)NCc4ccco4)ccc3c2=O)c(OC)c1 |  | inconclusive: 3.55 µM [inhibitor, partial curve] |
| Cc1ccc2nsnc2c1NC(=O)c1ccc([N+](=O)[O-])cc1 |  | active: 7.94 µM |
| Cc1ccc(S(=O)(=O)N(C)CC(=O)O/N=C(\N)c2ccccn2)cc1 |  | inconclusive: 6.31 µM [activator, full curve, poor fit] |
| Fc1ccccc1-c1csc(=Nc2cccnc2)n1CCCn1ccnc1 |  | inconclusive: 22.4 µM [activator, partial curve, poor fit] |
| O=C(CCC(=O)c1ccc(F)cc1)Nc1cccnc1 |  | inconclusive: 10 µM [inhibitor, partial curve, poor fit] |
| COc1ccc(-c2cc(C(F)(F)F)nc(SCCC(=O)N3CCN4CCCC4C3)n2)cc1 (configuration not stated) | inactive: -1.28% |  |
| N#C/C(=C\c1ccc(N2CCCCC2)o1)C(=O)Nc1cccc(Br)c1 |  | inconclusive: 0.891 µM [activator, full curve] |
| O=C(CSc1ccccc1)NC1CCCCCC1 |  | inconclusive: 4.47 µM [activator, full curve] |
| COc1cc(/C=N/NC(=O)c2ccc(C)nc2)cc([N+](=O)[O-])c1O |  | inconclusive: 10 µM [inhibitor, partial curve] |
| Cc1cc(C(=O)CN2C(=O)NC3(CCCc4sccc43)C2=O)c(C)n1-c1ccccc1 (configuration not stated) |  | inconclusive: 14.1 µM [activator, partial curve] |
| COc1ccc(-n2c(=O)c(-c3cccs3)nc3cncnc32)cc1 | inactive: 8.82% |  |
| COC(=O)/C=c1/s/c(=C(\C#N)C(=O)NCc2ccco2)n(-c2ccccc2)c1=O |  | inconclusive: 0.005 µM [inhibitor, full curve, poor fit] |
| CCOC(=O)CC(C)(C)/C(C)=N/Nc1ccc([N+](=O)[O-])cc1[N+](=O)[O-] |  | inconclusive: 15.8 µM [activator, partial curve] |
| Cc1[nH]nc2nc(SCC(=O)NC3CCCCC3)n(-c3ccc(Br)cc3)c(=N)c12 |  | inconclusive: 22.4 µM [inhibitor, single point] |
| Fc1cccc(NC(=S)NCC(c2cccnc2)N2CCOCC2)c1 (configuration not stated) |  | inconclusive: 35.5 µM [inhibitor, single point] |
